Results: the supplement of paper PMC3334620
Over roughly 33,000 sequences, “E-score (-0.5 to 0.5)” has its median near -0.0034; the highest 2% begin near 0.25. This is one part of the list.

molecular target: T1, Yap3 (UniProt P38749); assay: PBM E-score (8-mer binding enrichment) (E-score (-0.5 to 0.5)); higher = stronger / more preferred TF binding; conditions: protein concentration: 100 nM; construct: GST-full length
T1 sequence: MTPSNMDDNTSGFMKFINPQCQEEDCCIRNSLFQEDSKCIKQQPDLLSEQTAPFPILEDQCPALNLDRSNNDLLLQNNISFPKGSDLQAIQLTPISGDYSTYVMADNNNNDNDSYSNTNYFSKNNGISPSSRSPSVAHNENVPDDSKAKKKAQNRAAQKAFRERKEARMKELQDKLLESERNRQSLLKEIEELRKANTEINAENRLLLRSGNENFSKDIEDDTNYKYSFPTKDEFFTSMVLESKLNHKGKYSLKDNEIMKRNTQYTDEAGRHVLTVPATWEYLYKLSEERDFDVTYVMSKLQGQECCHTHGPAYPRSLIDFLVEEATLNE
How it was run: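 Universal all-10-mer Agilent arrays, fresh or stripped once, were converted to double-stranded form by primer extension. GST-tagged yeast transcription factors from PURExpress in vitro transcription/translation, full-length or DNA-binding domain only, were applied at about 100-200 nM and detected with fluorescent anti-GST. After masliner normalisation, the Universal PBM Analysis Suite scored each ungapped eight-base word together with its reverse complement by E-score.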

Row | Sequence | PBM E-score
1 | CCTACTTC | -0.0676
2 | GATCGGGA | -0.204
3 | CTAAATAG | 0.135
4 | AGTCAATG | -0.0836
5 | CGTAGTAC | 0.0811
6 | AGGGGAAG | -0.2
7 | CCTGTGTC | -0.124
8 | ACCAGCCG | -0.0862
9 | ACTTGAAT | 0.105
10 | CGACCTCC | -0.111
11 | CGTAGTCA | -0.0652
12 | TACAGAAA | 0.262
13 | CAGGTGGC | -0.173
14 | ATAGTTGC | 0.224
15 | CCTCAGTA | -0.129
16 | AATCATTA | 0.0925
17 | CCAGTTCA | -0.0846
18 | GAGGATAC | -0.0386
19 | CAAGACTC | -0.0232
20 | CATCGCGA | 0.112
21 | CCGGTCAA | 0.0995
22 | CGGCACCC | -0.168
23 | CGACGTGA | 0.0646
24 | ATCTCAAG | 0.123
25 | AGGCTTGA | 0.122

Row | Sequence | PBM E-score
26 | ATAAGGCG | 0.0352
27 | CGGTCAAA | 0.124
28 | GGAGGAAC | -0.242
29 | AGCTCAAA | 0.0486
30 | CCCAAAGC | -0.0848
31 | TTACGAAA | 0.202
32 | AACTATTG | 0.152
33 | AAGCCATT | -0.0174
34 | AGTAACCC | -0.00628
35 | AGTAGGCA | 0.0302
36 | ACGACTCG | -0.13
37 | TCACGACA | 0.0543
38 | CCTCTCCG | -0.312
39 | AGTGACAA | 0.107
40 | CGGTAATA | 0.202
41 | CTCGGGTC | -0.0553
42 | AGGAGGCC | -0.19
43 | GAATATAA | 0.195
44 | ATAGCTTC | -0.058
45 | GATACTAC | 0.0824
46 | AATGCCCT | -0.154
47 | AGCTCTCG | -0.212
48 | ATCTGACA | 0.0405
49 | CCATGTAG | -0.014
50 | GGTGCCGA | -0.0673

Some of the entries so far, with each value named.
AGCTCAAA
  PBM E-score: 0.0486
TTACGAAA
  PBM E-score: 0.202
CTCGGGTC
  PBM E-score: -0.0553
GAATATAA
  PBM E-score: 0.195

Carrying on.

Row | Sequence | PBM E-score
51 | CTAGAAAC | 0.0635
52 | ACGGTCGG | -0.0385
53 | TGATCGCA | -0.0549
54 | AAGAAAGA | 0.0743
55 | GAAACCTC | -0.208
56 | AGGAGTGC | -0.0507
57 | AGATGAGG | -0.0678
58 | CGATATCG | 0.208
59 | CCCTCAAC | -0.239
60 | CAGGTAAC | -0.17
61 | CGTATCTA | 0.0965
62 | ACAGAAAC | 0.285
63 | AATAATTA | 0.316
64 | ATGGGCGG | -0.0363
65 | AAGTATGG | 0.0246
66 | ATTAGTAC | 0.136
67 | ATCCTGTG | -0.0412
68 | CCAGTCGG | -0.149
69 | GATAGACA | 0.0506
70 | CCCAATAG | -0.031
71 | AGCGTTTC | -0.00718
72 | GCGTCCGA | -0.114
73 | GGTAGGTA | -0.112
74 | CTAAGATC | 0.0564
75 | AGGGGGCC | -0.356

Row | Sequence | PBM E-score
76 | GCAGATCC | 0.0102
77 | CCACATTC | 0.00371
78 | TGACCTAA | 0.072
79 | CTTTCCGC | -0.0162
80 | AGGTGACT | -0.0767
81 | CATTAGCA | 0.0386
82 | GGCGGATA | -0.121
83 | AAACATTC | -0.0161
84 | AGCCGGAA | 0.103
85 | AGATTAGG | 0.0272
86 | GCCAACCA | -0.209
87 | CGTGCGTA | -0.0168
88 | ATTCCAAC | 0.11
89 | GCCCGGCC | -0.38
90 | ACGTAGCA | 0.0068
91 | CGCCTTCC | -0.216
92 | AAGGTTAA | 0.0137
93 | CGACGACC | -0.14
94 | AACGGAAT | 0.262
95 | ACAGCCGA | -0.142
96 | AGCCTTTG | -0.17
97 | GAATGTAA | 0.221
98 | CGCGCTAA | 0.2
99 | CGAGCACA | 0.0403
100 | ACGATCCA | -0.102

Row | Sequence | PBM E-score
101 | GCCATGTA | 0.102
102 | TAATAACA | 0.189
103 | AACTTTAT | 0.163
104 | CAGTAATC | 0.0876
105 | AGACAAAG | -0.0105
106 | ATTTTACG | 0.309
107 | CGAATGAG | 0.0546
108 | AGACGAGA | 0.0448
109 | ATAGATCC | -0.0273
110 | ACTGACAT | 0.0703
111 | GGCTAAAA | -0.127
112 | CCTCTAAC | -0.00843
113 | CCACGTAA | 0.0186
114 | GCAATGCC | 0.0775
115 | CCTAAGAA | 0.0334
116 | GTCCCCCA | -0.198
117 | ACCGGATC | -0.0261
118 | GGACAAGA | -0.00257
119 | ATATTCAA | 0.238
120 | AAGGTTGG | 0.0215
121 | GATTGAGA | 0.156
122 | GTATTGGA | 0.00161
123 | AAGCTACG | -0.078
124 | CTTAGTCA | 0.373
125 | CCACTCCG | -0.0481

Row | Sequence | PBM E-score
126 | GATAGTCC | -0.0286
127 | AACGATAC | 0.0446
128 | GCCGAAAC | -0.075
129 | GCATCGCA | -0.361
130 | AATTAGAT | 0.245
131 | AGTGGCCA | -0.0423
132 | CATGCATG | 0.0144
133 | AACTCATT | 0.0581
134 | TAGTTTAA | 0.177
135 | GACCGGGC | -0.19
136 | CGAGACTC | -0.0387
137 | GAGGTCGC | -0.205
138 | CTAAGTAG | 0.16
139 | AGAATACC | 0.125
140 | AGTACCGG | -0.179
141 | GCGTAGCA | -0.02
142 | TAACCCTA | -0.0956
143 | ACCGCCGT | -0.0221
144 | CAACATGG | 0.14
145 | ATGGCACG | -0.081
146 | ACCCTGCA | 0.122
147 | ATAGATTC | -0.0357
148 | AACGATTA | 0.0595
149 | ATCGGCGA | -0.127
150 | ATACGTAT | 0.296

Looked up one by one from the list above, five records:
Row | Sequence | PBM E-score
132 | CATGCATG | 0.0144
136 | CGAGACTC | -0.0387
150 | ATACGTAT | 0.296
126 | GATAGTCC | -0.0286
140 | AGTACCGG | -0.179

Next part

Row | Sequence | PBM E-score
151 | CTTGGGCA | 0.0848
152 | GCTCCCCA | -0.353
153 | AAAAGTGT | -0.016
154 | GGGACGTA | -0.0984
155 | GCCCATAA | -0.13
156 | CGCTTACA | 0.062
157 | CTAACCTA | 0.0526
158 | GAATCGAC | 0.062
159 | GAGACTGA | -0.0536
160 | AATTACCA | 0.256
161 | ATTATGTC | 0.198
162 | AAGCTTCC | -0.146
163 | GGGCAGGA | -0.0798
164 | GCTCACCA | -0.113
165 | TGTAGCAA | -0.0221
166 | CTGTAGCC | -0.092
167 | AAGTTTCC | -0.0578
168 | TTGCGAAA | 0.114
169 | GGAGTGCA | 0.213
170 | AAGCAAGC | -0.0393
171 | GTAAATAC | 0.0284
172 | AGTGAGCG | 0.057
